This passage reports binding results from article PMC13144351.

Sequences of proteins named here, by UniProt entry; tags and fusion partners are left off.
UniProt O94822: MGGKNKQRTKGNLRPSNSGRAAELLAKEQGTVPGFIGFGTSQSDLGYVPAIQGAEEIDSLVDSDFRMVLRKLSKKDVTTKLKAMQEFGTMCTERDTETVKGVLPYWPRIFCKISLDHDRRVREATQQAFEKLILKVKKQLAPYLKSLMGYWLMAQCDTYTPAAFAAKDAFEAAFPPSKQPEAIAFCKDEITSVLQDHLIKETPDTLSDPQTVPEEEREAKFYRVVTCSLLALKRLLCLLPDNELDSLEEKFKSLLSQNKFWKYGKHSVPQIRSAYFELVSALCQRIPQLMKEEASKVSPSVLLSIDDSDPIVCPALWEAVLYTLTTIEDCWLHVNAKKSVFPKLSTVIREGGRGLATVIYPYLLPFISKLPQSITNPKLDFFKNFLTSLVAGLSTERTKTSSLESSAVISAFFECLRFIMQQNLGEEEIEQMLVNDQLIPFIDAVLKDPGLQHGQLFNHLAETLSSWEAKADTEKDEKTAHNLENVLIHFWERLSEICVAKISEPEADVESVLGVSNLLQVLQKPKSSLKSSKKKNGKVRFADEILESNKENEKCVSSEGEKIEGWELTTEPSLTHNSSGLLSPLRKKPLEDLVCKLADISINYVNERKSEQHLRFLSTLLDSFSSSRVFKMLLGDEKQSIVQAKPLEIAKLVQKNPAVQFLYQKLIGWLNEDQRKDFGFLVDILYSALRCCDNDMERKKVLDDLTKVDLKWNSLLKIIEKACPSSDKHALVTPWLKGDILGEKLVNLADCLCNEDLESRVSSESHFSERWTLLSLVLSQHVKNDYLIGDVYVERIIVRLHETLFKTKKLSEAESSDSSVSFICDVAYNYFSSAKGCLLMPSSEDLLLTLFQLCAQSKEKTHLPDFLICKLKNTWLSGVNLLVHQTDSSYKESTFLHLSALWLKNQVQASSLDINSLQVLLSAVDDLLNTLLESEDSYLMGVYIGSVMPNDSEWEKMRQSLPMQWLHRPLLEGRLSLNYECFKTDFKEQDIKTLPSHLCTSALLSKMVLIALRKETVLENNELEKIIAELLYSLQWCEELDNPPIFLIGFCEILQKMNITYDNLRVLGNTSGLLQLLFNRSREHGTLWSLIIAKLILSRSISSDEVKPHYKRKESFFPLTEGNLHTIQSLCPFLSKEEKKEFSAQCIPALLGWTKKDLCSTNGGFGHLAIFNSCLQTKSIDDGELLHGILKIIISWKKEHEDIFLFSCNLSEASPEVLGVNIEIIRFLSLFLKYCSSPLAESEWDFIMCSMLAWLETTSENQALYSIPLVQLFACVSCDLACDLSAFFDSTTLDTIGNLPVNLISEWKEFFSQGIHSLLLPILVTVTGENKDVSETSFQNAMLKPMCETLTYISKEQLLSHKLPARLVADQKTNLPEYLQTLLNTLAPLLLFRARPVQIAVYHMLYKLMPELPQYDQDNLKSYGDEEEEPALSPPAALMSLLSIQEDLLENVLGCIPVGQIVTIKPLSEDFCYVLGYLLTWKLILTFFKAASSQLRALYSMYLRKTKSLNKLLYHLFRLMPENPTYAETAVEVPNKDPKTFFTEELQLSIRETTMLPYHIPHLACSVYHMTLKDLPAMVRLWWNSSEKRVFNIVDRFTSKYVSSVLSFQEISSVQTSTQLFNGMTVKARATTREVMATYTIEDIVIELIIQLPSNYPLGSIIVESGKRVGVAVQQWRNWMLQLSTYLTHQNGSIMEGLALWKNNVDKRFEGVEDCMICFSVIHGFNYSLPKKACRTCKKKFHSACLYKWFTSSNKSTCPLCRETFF

For this assay, the target named is 3xFLAG-UFM1 (ubiquitin-fold modifier 1, endogenously tagged) (human) (UniProt P61960). The experiment in a line: co-IP; anti-FLAG M2 on protein G Dynabeads; cleared digitonin lysates of HCT116 or RKO iCas9 3xFLAG-UFM1 cells or parental cells, untreated or 200 nM anisomycin 1 h; 4 °C, 2 h; immunoblot.

These are yes or no findings as the source states them, for the method shown. In cells and extracts the contact can be indirect. A result given as binding can be weak or reduced; the word gives no strength.

LTN1 (from UniProt O94822 1-1766): the binding result is “binds”.

B1: NEMF (protein, UniProt O60524 1-1076)
chain: MKSRFSTIDLRAVLAELNASLLGMRVNNVYDVDNKTYLIRLQKPDFKATLLLESGIRIHTTEFEWPKNMMPSSFAMKCRKHLKSRRLVSAKQLGVDRIVDFQFGSDEAAYHLIIELYDRGNIVLTDYEYVILNILRFRTDEADDVKFAVRERYPLDHARAAEPLLTLERLTEIVASAPKGELLKRVLNPLLPYGPALIEHCLLENGFSGNVKVDEKLETKDIEKVLVSLQKAEDYMKTTSNFSGKGYIIQKREIKPSLEADKPVEDILTYEEFHPFLFSQHSQCPYIEFESFDKAVDEFYSKIEGQKIDLKALQQEKQALKKLDNVRKDHENRLEALQQAQEIDKLKGELIEMNLQIVDRAIQVVRSALANQIDWTEIGLIVKEAQAQGDPVASAIKELKLQTNHVTMLLRNPYLLSEEEDDDVDGDVNVEKNETEPPKGKKKKQKNKQLQKPQKNKPLLVDVDLSLSAYANAKKYYDHKRYAAKKTQKTVEAAEKAFKSAEKKTKQTLKEVQTVTSIQKARKVYWFEKFLWFISSENYLIIGGRDQQQNEIIVKRYLTPGDIYVHADLHGATSCVIKNPTGEPIPPRTLTEAGTMALCYSAAWDARVITSAWWVYHHQVSKTAPTGEYLTTGSFMIRGKKNFLPPSYLMMGFSFLFKVDESCVWRHQGERKVRVQDEDMETLASCTSELISEEMEQLDGGDTSSDEDKEEHETPVEVELMTQVDQEDITLQSGRDELNEELIQEESSEDEGEYEEVRKDQDSVGEMKDEGEETLNYPDTTIDLSHLQPQRSIQKLASKEESSNSSDSKSQSRRHLSAKERREMKKKKLPSDSGDLEALEGKDKEKESTVHIETHQNTSKNVAAVQPMKRGQKSKMKKMKEKYKDQDEEDRELIMKLLGSAGSNKEEKGKKGKKGKTKDEPVKKQPQKPRGGQRVSDNIKKETPFLEVITHELQDFAVDDPHDDKEEQDLDQQGNEENLFDSLTGQPHPEDVLLFAIPICAPYTTMTNYKYKVKLTPGVQKKGKAAKTALNSFMHSKEATAREKDLFRSVKDTDLSRNIPGKVKVSAPNLLNVKRK
With B1, the binding result is reported as “binds”.
